PubChem BioAssay AID652272, Drosophila RNAi Screening Center – 2013
Screen: 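Genome-wide knock-down search for components of Hedgehog signalling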 (primary screen). Cells: Drosophila clone 8 (Cl8) cells. Reagent: long dsRNA against Drosophila genes. Read-out: 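Plate reader light from a firefly reporter under a ptc promoter fragment that responds to Hedgehog, with Renilla light as transfection reference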. Direction: firefly Hh reporter signal: higher = more ptc reporter light; Renilla reference signal: higher = more Renilla control light. Active means: 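Hit when the z-score averaged over two replicates is under -2 or over +3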. Meaning of the calls: active = hit: reporter lowered or raised; inactive = not a hit.
In all, the deposit lists about 21,000 reagents; shown is an unselected part of those that have a named target and a result. Over the whole deposit, 503 (2.4%) are marked active. 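Raw plate light values, not normalised; calls rest on replicate z-scores that were not deposited; hits include reporter decreases as well as increases.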 Entries without a mark were called inactive. Names joined by + are all predicted targets of the reagent. Not stated in the record: the amount of reagent, the time to read-out.

{"target gene":"GAA1 (Glycosylphosphatidylinositol anchor attachment 1)","amplicon":"DRSC18267","firefly Hh reporter signal, replicate 1":1.02e5,"firefly Hh reporter signal, replicate 2":80133,"Renilla reference signal, replicate 1":2358,"Renilla reference signal, replicate 2":1856}
{"target gene":"Actbeta (Activin-beta)","amplicon":"DRSC17185","firefly Hh reporter signal, replicate 1":6.37e5,"firefly Hh reporter signal, replicate 2":2.55e5,"Renilla reference signal, replicate 1":33782,"Renilla reference signal, replicate 2":5808}
{"target gene":"Actbeta (Activin-beta)","amplicon":"DRSC17217","firefly Hh reporter signal, replicate 1":71333,"firefly Hh reporter signal, replicate 2":1.74e5,"Renilla reference signal, replicate 1":2050,"Renilla reference signal, replicate 2":6984}
{"target gene":"Xpc (Xeroderma pigmentosum, complementation group C)","amplicon":"DRSC07654","firefly Hh reporter signal, replicate 1":1.02e5,"firefly Hh reporter signal, replicate 2":73496,"Renilla reference signal, replicate 1":3936,"Renilla reference signal, replicate 2":2523}
{"target gene":"lcs (la costa)","amplicon":"DRSC20580","firefly Hh reporter signal, replicate 1":92029,"firefly Hh reporter signal, replicate 2":3.53e5,"Renilla reference signal, replicate 1":2196,"Renilla reference signal, replicate 2":13364}
{"target gene":"xit (xiantuan)","amplicon":"DRSC18364","firefly Hh reporter signal, replicate 1":80851,"firefly Hh reporter signal, replicate 2":58240,"Renilla reference signal, replicate 1":1768,"Renilla reference signal, replicate 2":1281}
{"target gene":"MED7 (Mediator complex subunit 7)","amplicon":"DRSC16059","firefly Hh reporter signal, replicate 1":73430,"firefly Hh reporter signal, replicate 2":1.46e5,"Renilla reference signal, replicate 1":2461,"Renilla reference signal, replicate 2":3213}
{"target gene":"atos (atossa)","amplicon":"DRSC07318","firefly Hh reporter signal, replicate 1":1.17e5,"firefly Hh reporter signal, replicate 2":47689,"Renilla reference signal, replicate 1":2807,"Renilla reference signal, replicate 2":3569}
{"target gene":"CG42710","amplicon":"DRSC01034","firefly Hh reporter signal, replicate 1":4.74e5,"firefly Hh reporter signal, replicate 2":1.63e5,"Renilla reference signal, replicate 1":23889,"Renilla reference signal, replicate 2":5943}
{"target gene":"CG15535","amplicon":"DRSC15071","firefly Hh reporter signal, replicate 1":1.04e5,"firefly Hh reporter signal, replicate 2":1.10e5,"Renilla reference signal, replicate 1":2721,"Renilla reference signal, replicate 2":3218}
{"target gene":"thw (thawb)","amplicon":"DRSC12552","firefly Hh reporter signal, replicate 1":81685,"firefly Hh reporter signal, replicate 2":99600,"Renilla reference signal, replicate 1":2432,"Renilla reference signal, replicate 2":2966}
{"target gene":"stol (stolid)","amplicon":"DRSC01956","firefly Hh reporter signal, replicate 1":81232,"firefly Hh reporter signal, replicate 2":39741,"Renilla reference signal, replicate 1":2205,"Renilla reference signal, replicate 2":3724}
{"target gene":"UQCR-Q (Ubiquinol-cytochrome c reductase ubiquinone-binding protein)","amplicon":"DRSC10886","firefly Hh reporter signal, replicate 1":1.10e5,"Renilla reference signal, replicate 1":4754,"Renilla reference signal, replicate 2":2779}

Already shown: 2 of the entries above.
{"target gene":"thw (thawb)","amplicon":"DRSC12552","firefly Hh reporter signal, replicate 1":81685,"firefly Hh reporter signal, replicate 2":99600,"Renilla reference signal, replicate 1":2432,"Renilla reference signal, replicate 2":2966}
{"target gene":"stol (stolid)","amplicon":"DRSC01956","firefly Hh reporter signal, replicate 1":81232,"firefly Hh reporter signal, replicate 2":39741,"Renilla reference signal, replicate 1":2205,"Renilla reference signal, replicate 2":3724}

The list goes on:
{"target gene":"CG6118","amplicon":"DRSC15968","firefly Hh reporter signal, replicate 1":55571,"firefly Hh reporter signal, replicate 2":21828,"Renilla reference signal, replicate 1":1595,"Renilla reference signal, replicate 2":786}
{"target gene":"CG42634 + CG42635","amplicon":"DRSC02450","firefly Hh reporter signal, replicate 1":1.22e5,"firefly Hh reporter signal, replicate 2":53718,"Renilla reference signal, replicate 1":2715,"Renilla reference signal, replicate 2":5175}
{"target gene":"CG6044","amplicon":"DRSC04522","firefly Hh reporter signal, replicate 1":1.06e5,"firefly Hh reporter signal, replicate 2":72749,"Renilla reference signal, replicate 1":1666,"Renilla reference signal, replicate 2":5825}
{"target gene":"CG32073","amplicon":"DRSC09087","firefly Hh reporter signal, replicate 1":1.25e5,"firefly Hh reporter signal, replicate 2":1.99e5,"Renilla reference signal, replicate 1":3905,"Renilla reference signal, replicate 2":8848}
{"target gene":"CG32073","amplicon":"DRSC09894","firefly Hh reporter signal, replicate 1":46948,"firefly Hh reporter signal, replicate 2":60106,"firefly Hh reporter signal, replicate 3":68439,"Renilla reference signal, replicate 1":6321,"Renilla reference signal, replicate 2":5824}
{"target gene":"CG10814","amplicon":"DRSC06004","firefly Hh reporter signal, replicate 1":99639,"firefly Hh reporter signal, replicate 2":62961,"Renilla reference signal, replicate 1":3820,"Renilla reference signal, replicate 2":2471}
{"target gene":"CG10466","amplicon":"DRSC02060","firefly Hh reporter signal, replicate 1":83801,"firefly Hh reporter signal, replicate 2":62999,"Renilla reference signal, replicate 1":2082,"Renilla reference signal, replicate 2":6771}
{"target gene":"Srg2 (Sting-regulated gene 2)","amplicon":"DRSC10681","firefly Hh reporter signal, replicate 1":60304,"firefly Hh reporter signal, replicate 2":69696,"Renilla reference signal, replicate 1":3010,"Renilla reference signal, replicate 2":2567}
